The source gives many values for each of these; only a part stands here.
Test system: distal small bowel gene expression
Assay: RNA sequencing / transcriptional analysis of small bowel 56 days after ICR (2′-FL signature response)
Format: in vivo, mouse
Excerpt: Luminal small bowel contents were expressed into AllProtect Tissue Reagent (Qiagen Inc, CA). Bacterial DNA was extracted using the AllPrep DNA/RNA Mini Kit (Qiagen Inc, CA), according to kit instructions and prior to sequencing (described below). Small bowel tissue samples for RNA were placed into RNA Later (Life Technologies, NY). RNA extraction was accomplished following Qiagen RNeasy Plus Kit instruction (Qiagen Inc, CA). All nucleic acid samples were then stored at -80 Celsius until sequenced (described below). Transcriptional analysis was carried out on resected and harvested small bowel samples obtained from operated mice taken to 8 weeks. Murine RNA sequencing libraries were prepared from approximately 1.5 μg RNA using the TruSeq RNA Sample Preparation Kit (Illumina, Calif.) and sequenced using the HiSeq 2000 Sequencing System (Illumina, Calif.) with single-end 50 bp reads. Following removal of primers and barcodes, sequences were aligned to the mm10 genome using reference annotations from UCSC (Rosenbloom et al. (2015) Nucleic acids research 43: […]-681) (n=36,186 entities). Aligned reads were quantified and used to compute reads per kilobase per million mapped reads (RPKM); raw counts were then normalized using the DESeq algorithm and each harvested sample was baselined to its own resected sample. A filter was applied to the data, requiring at least three reads in all samples of at least one of the four experimental conditions (n=14,489 entities). The data discussed in this publication have been deposited in NCBI's Gene Expression Omnibus and are accessible through NCBI Gene Expression Omnibus (GEO) Series accession number GSE72590. Edgar et al. (2002) Nucleic acids research 30: 207-210. In order to characterize the impact of 2'-FL supplementation while accounting for the effect of ileoecal resection, a t-test was applied between resected and harvested samples within control and experimental animals. Significance was set at a p-value of ≤0.05 and a fold change of 3, which generated 2,576 differentially regulated entities across two comparisons. Gene set unions and intersections of the control and experimental gene sets were identified through Venn diagrams. From the master list, the gene list specific to animals supplemented with 2'-FL were removed in order to identify genes differentially regulated only by ICR (n=546 entities); this gene set characterizes the adaptive response. Further, the 2'-FL response (n=2,030 entities) was identified by removing the adaptive response signature described above from the master list, leaving only genes regulated by 2'-FL supplementation after ICR which were not found in the non-supplemented adaptive response. Heatmaps were generated using hierarchical clustering with the Pearson's Centered distance metric and the average linkage rule; both entities and samples were clustered. All genomic analyses described above were performed in Strand NGS (Strand Life Sciences, CA). Gene list functional enrichment was initially discovered using ToppFun, a member of the ToppGene Suite. Chen et al. (2009) Nucleic acids research 37: […]-311. No statistical correction was selected. Gene lists were further analyzed using ClueGO, a plugin for Cytoscape designed to decipher functionally grouped gene ontology and pathway annotation networks. Bindea et al. (2009) Bioinformatics 25: 1091-1093. At the time of data analysis, the annotation files were updated from sources to Jan. 1, 2015. “GO Term Fusion” was enabled to manage ontologic term redundancy and network specificity was set to medium. Results were restricted to pathways with p≤0.05 using Benjamini-Hochberg correction and Kappa scoring was set to 0.4. Biocyc annotations were assigned a rectangle, gene ontology biologic processes were assigned an ellipse, and […] annotations were assigned a diamond shape. No meaning was assigned to size or color. […]

## C[C@@H]1O[C@@H](O[C@H]2[C@H](O[C@H]3[C@H](O)[C@@H](O)C(O)O[C@@H]3CO)O[C@H](CO)[C@H](O)[C@@H]2O)[C@@H](O)[C@H](O)[C@@H]1O (stereo partly shown) [2′-FL, 2′-fucosyllactose]
Gene Prelp
  Fold Change (Pre- to Post-op): −7.993
Gene Prex1
  Fold Change (Pre- to Post-op): −3.715
Gene Prkar1b
  Fold Change (Pre- to Post-op): −4.024
Gene Proser1
  Fold Change (Pre- to Post-op): −3.407
Gene Prox1
  Fold Change (Pre- to Post-op): −6.28
Gene Prpf8
  Fold Change (Pre- to Post-op): −4.161
Gene Prrc2a
  Fold Change (Pre- to Post-op): −7.106
Gene Prrc2b
  Fold Change (Pre- to Post-op): −6.144
Gene Prrg3
  Fold Change (Pre- to Post-op): −6.516
Gene Prrt2
  Fold Change (Pre- to Post-op): −3.049
Gene Psmb6
  Fold Change (Pre- to Post-op): 3.04
Gene Ptger1
  Fold Change (Pre- to Post-op): −3.016
Gene Ptpn9
  Fold Change (Pre- to Post-op): −3.175
Gene Ptpn14
  Fold Change (Pre- to Post-op): −4.975
Gene Ptprb
  Fold Change (Pre- to Post-op): −4.231
Gene Ptprm
  Fold Change (Pre- to Post-op): −3.997
Gene Ptprn
  Fold Change (Pre- to Post-op): −6.834
Gene Ptprn2
  Fold Change (Pre- to Post-op): −4.391
Gene Pvrl1
  Fold Change (Pre- to Post-op): −5.314
Gene Pygb
  Fold Change (Pre- to Post-op): −3.516
Gene Pyy
  Fold Change (Pre- to Post-op): −4.067
Gene Qser1
  Fold Change (Pre- to Post-op): −3.066
Gene R3hdm2
  Fold Change (Pre- to Post-op): −5.084
Gene Rab17
  Fold Change (Pre- to Post-op): 3.039
Gene Rad54l2
  Fold Change (Pre- to Post-op): −3.188
Gene Radil
  Fold Change (Pre- to Post-op): −4.409
Gene Rai1
  Fold Change (Pre- to Post-op): −3.4
Gene Rapgef1
  Fold Change (Pre- to Post-op): −3.382
Gene Rarg
  Fold Change (Pre- to Post-op): −3.982
Gene Rasgrp3
  Fold Change (Pre- to Post-op): −3.727
Gene Rassf8
  Fold Change (Pre- to Post-op): −3.671
Gene Rcan2
  Fold Change (Pre- to Post-op): −3.53
Gene Rcc2
  Fold Change (Pre- to Post-op): −4.586
Gene Rcor1
  Fold Change (Pre- to Post-op): −5.596
Gene Rcor2
  Fold Change (Pre- to Post-op): −3.832
Gene Rdh1
  Fold Change (Pre- to Post-op): −9.098
Gene Reck
  Fold Change (Pre- to Post-op): −3.697
Gene Rere
  Fold Change (Pre- to Post-op): −5.753
Gene Ret
  Fold Change (Pre- to Post-op): −3.961
Gene Rexo1
  Fold Change (Pre- to Post-op): −3.149
Gene Rftn1
  Fold Change (Pre- to Post-op): −5.51
Gene Rfx1
  Fold Change (Pre- to Post-op): −3.628
Gene Rfx2
  Fold Change (Pre- to Post-op): −3.221
Gene Rgl1
  Fold Change (Pre- to Post-op): −4.147
Gene Rgma
  Fold Change (Pre- to Post-op): −7.777
Gene Rgp1
  Fold Change (Pre- to Post-op): −3.128
Gene Rgs7bp
  Fold Change (Pre- to Post-op): −4.455
Gene Rgs12
  Fold Change (Pre- to Post-op): −3.405
Gene Rimbp2
  Fold Change (Pre- to Post-op): −3.777
Gene Rin3
  Fold Change (Pre- to Post-op): −6.563
Gene Rnf26
  Fold Change (Pre- to Post-op): −3.258
Gene Rnf39
  Fold Change (Pre- to Post-op): −4.08
Gene Rnf44
  Fold Change (Pre- to Post-op): −3.882
Gene Rnf123
  Fold Change (Pre- to Post-op): −3.016
Gene Rnf145
  Fold Change (Pre- to Post-op): −3.718
Gene Rnf169
  Fold Change (Pre- to Post-op): −5.832
Gene Robo4
  Fold Change (Pre- to Post-op): −4.701
Gene Rps6ka3
  Fold Change (Pre- to Post-op): −3.23
Gene Rreb1
  Fold Change (Pre- to Post-op): −3.94
Gene Rrp1b
  Fold Change (Pre- to Post-op): −4.476
Gene Runx1t1
  Fold Change (Pre- to Post-op): −3.846
Gene Rusc2
  Fold Change (Pre- to Post-op): −5.98
Gene S1pr3
  Fold Change (Pre- to Post-op): −4.05
Gene Safb
  Fold Change (Pre- to Post-op): −3.012
Gene Safb2
  Fold Change (Pre- to Post-op): −4.195
Gene Sall2
  Fold Change (Pre- to Post-op): −4.298
Gene Samd4b
  Fold Change (Pre- to Post-op): −4.849
Gene Samd14
  Fold Change (Pre- to Post-op): −3.117
Gene Sart1
  Fold Change (Pre- to Post-op): −3.301
Gene Satb1
  Fold Change (Pre- to Post-op): −4.068
Gene Satb2
  Fold Change (Pre- to Post-op): −7.47
Gene Sbf2
  Fold Change (Pre- to Post-op): −3.294
Gene Scaf4
  Fold Change (Pre- to Post-op): −3.508
Gene Scd3
  Fold Change (Pre- to Post-op): −9.216
Gene Scd4
  Fold Change (Pre- to Post-op): −4.298
Gene Scg3
  Fold Change (Pre- to Post-op): −4.905
Gene Scn9a
  Fold Change (Pre- to Post-op): −5.496
Gene Scnn1a
  Fold Change (Pre- to Post-op): −3.551
Gene Scube1
  Fold Change (Pre- to Post-op): −5.889
Gene Sdc3
  Fold Change (Pre- to Post-op): −3.31
Gene Sec31a
  Fold Change (Pre- to Post-op): −3.309
Gene Sema4c
  Fold Change (Pre- to Post-op): −3.6
Gene Sema6a
  Fold Change (Pre- to Post-op): −3.4
Gene Sema6c
  Fold Change (Pre- to Post-op): −4.005
Gene Sema4d
  Fold Change (Pre- to Post-op): −5.098
Gene Setd1a
  Fold Change (Pre- to Post-op): −4.558
Gene Setd1b
  Fold Change (Pre- to Post-op): −12.66
Gene Setd2
  Fold Change (Pre- to Post-op): −4.039
Gene Sez6l2
  Fold Change (Pre- to Post-op): −5.201
Gene Sf1
  Fold Change (Pre- to Post-op): −3.678
Gene Sf3a2
  Fold Change (Pre- to Post-op): −7.792
Gene Sf3b3
  Fold Change (Pre- to Post-op): −3.328
Gene Sfxn5
  Fold Change (Pre- to Post-op): −4.939
Gene Sgtb
  Fold Change (Pre- to Post-op): −4.041
Gene Sh2b2
  Fold Change (Pre- to Post-op): −6.791
Gene Sh3bp1
  Fold Change (Pre- to Post-op): −5.739
Gene Sh3kbp1
  Fold Change (Pre- to Post-op): −3.7
Gene Sh3pxd2a
  Fold Change (Pre- to Post-op): −5.598
Gene Sh3pxd2b
  Fold Change (Pre- to Post-op): −4.203
Gene Sh3rf1
  Fold Change (Pre- to Post-op): −3.367
Gene Shank2
  Fold Change (Pre- to Post-op): −12.68
Gene Shisa7
  Fold Change (Pre- to Post-op): −5.311
Gene Shroom3
  Fold Change (Pre- to Post-op): −4.051
Gene Shroom4
  Fold Change (Pre- to Post-op): −5.774
Gene Siglec1
  Fold Change (Pre- to Post-op): −4.753
Gene Siglece
  Fold Change (Pre- to Post-op): −4.016
Gene Sik2
  Fold Change (Pre- to Post-op): −5.871
Gene Sik3
  Fold Change (Pre- to Post-op): −3.681
Gene Simc1
  Fold Change (Pre- to Post-op): −3.024
Gene Sipa1
  Fold Change (Pre- to Post-op): −5.75
Gene Sipa1l1
  Fold Change (Pre- to Post-op): −4.66
Gene Sipa1l2
  Fold Change (Pre- to Post-op): −3.458
Gene Sipa1l3
  Fold Change (Pre- to Post-op): −6.282
Gene Ski
  Fold Change (Pre- to Post-op): −4.917
Gene Slc2a3
  Fold Change (Pre- to Post-op): −7.565
Gene Slc2a10
  Fold Change (Pre- to Post-op): −3.066
Gene Slc6a6
  Fold Change (Pre- to Post-op): −5.089
Gene Slc7a1
  Fold Change (Pre- to Post-op): −3.243
Gene Slc7a8
  Fold Change (Pre- to Post-op): −7.746
Gene Slc8a2
  Fold Change (Pre- to Post-op): −6.736
Gene Slc9a1
  Fold Change (Pre- to Post-op): −5.862

Reference: patent US10857167B2, “Use of oligosaccharide compositions to enhance weight gain” (Children's Hospital Medical Center, priority 2015, dated 2020)
